These are yes or no findings as the source states them, for the method shown. Binding seen in cells or lysates may run through a third protein. A yes stands for co-enrichment or nearness to the bait. Other partners may have been found.

The chains behind the UniProt entries cited, without tags or fusion partners.
UniProt P04198: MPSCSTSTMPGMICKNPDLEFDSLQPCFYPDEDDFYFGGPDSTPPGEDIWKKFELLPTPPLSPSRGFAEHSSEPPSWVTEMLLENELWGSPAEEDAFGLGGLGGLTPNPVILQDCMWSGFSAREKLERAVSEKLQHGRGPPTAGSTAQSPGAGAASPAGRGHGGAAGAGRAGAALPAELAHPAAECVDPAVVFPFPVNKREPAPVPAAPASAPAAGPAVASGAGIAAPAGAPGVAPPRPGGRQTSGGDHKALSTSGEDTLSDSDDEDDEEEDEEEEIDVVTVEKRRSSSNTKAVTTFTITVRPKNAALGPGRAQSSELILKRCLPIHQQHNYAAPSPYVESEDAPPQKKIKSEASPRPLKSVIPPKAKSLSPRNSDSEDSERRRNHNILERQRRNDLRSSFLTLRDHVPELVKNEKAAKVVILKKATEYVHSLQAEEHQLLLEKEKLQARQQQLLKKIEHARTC
UniProt Q9Y4A5: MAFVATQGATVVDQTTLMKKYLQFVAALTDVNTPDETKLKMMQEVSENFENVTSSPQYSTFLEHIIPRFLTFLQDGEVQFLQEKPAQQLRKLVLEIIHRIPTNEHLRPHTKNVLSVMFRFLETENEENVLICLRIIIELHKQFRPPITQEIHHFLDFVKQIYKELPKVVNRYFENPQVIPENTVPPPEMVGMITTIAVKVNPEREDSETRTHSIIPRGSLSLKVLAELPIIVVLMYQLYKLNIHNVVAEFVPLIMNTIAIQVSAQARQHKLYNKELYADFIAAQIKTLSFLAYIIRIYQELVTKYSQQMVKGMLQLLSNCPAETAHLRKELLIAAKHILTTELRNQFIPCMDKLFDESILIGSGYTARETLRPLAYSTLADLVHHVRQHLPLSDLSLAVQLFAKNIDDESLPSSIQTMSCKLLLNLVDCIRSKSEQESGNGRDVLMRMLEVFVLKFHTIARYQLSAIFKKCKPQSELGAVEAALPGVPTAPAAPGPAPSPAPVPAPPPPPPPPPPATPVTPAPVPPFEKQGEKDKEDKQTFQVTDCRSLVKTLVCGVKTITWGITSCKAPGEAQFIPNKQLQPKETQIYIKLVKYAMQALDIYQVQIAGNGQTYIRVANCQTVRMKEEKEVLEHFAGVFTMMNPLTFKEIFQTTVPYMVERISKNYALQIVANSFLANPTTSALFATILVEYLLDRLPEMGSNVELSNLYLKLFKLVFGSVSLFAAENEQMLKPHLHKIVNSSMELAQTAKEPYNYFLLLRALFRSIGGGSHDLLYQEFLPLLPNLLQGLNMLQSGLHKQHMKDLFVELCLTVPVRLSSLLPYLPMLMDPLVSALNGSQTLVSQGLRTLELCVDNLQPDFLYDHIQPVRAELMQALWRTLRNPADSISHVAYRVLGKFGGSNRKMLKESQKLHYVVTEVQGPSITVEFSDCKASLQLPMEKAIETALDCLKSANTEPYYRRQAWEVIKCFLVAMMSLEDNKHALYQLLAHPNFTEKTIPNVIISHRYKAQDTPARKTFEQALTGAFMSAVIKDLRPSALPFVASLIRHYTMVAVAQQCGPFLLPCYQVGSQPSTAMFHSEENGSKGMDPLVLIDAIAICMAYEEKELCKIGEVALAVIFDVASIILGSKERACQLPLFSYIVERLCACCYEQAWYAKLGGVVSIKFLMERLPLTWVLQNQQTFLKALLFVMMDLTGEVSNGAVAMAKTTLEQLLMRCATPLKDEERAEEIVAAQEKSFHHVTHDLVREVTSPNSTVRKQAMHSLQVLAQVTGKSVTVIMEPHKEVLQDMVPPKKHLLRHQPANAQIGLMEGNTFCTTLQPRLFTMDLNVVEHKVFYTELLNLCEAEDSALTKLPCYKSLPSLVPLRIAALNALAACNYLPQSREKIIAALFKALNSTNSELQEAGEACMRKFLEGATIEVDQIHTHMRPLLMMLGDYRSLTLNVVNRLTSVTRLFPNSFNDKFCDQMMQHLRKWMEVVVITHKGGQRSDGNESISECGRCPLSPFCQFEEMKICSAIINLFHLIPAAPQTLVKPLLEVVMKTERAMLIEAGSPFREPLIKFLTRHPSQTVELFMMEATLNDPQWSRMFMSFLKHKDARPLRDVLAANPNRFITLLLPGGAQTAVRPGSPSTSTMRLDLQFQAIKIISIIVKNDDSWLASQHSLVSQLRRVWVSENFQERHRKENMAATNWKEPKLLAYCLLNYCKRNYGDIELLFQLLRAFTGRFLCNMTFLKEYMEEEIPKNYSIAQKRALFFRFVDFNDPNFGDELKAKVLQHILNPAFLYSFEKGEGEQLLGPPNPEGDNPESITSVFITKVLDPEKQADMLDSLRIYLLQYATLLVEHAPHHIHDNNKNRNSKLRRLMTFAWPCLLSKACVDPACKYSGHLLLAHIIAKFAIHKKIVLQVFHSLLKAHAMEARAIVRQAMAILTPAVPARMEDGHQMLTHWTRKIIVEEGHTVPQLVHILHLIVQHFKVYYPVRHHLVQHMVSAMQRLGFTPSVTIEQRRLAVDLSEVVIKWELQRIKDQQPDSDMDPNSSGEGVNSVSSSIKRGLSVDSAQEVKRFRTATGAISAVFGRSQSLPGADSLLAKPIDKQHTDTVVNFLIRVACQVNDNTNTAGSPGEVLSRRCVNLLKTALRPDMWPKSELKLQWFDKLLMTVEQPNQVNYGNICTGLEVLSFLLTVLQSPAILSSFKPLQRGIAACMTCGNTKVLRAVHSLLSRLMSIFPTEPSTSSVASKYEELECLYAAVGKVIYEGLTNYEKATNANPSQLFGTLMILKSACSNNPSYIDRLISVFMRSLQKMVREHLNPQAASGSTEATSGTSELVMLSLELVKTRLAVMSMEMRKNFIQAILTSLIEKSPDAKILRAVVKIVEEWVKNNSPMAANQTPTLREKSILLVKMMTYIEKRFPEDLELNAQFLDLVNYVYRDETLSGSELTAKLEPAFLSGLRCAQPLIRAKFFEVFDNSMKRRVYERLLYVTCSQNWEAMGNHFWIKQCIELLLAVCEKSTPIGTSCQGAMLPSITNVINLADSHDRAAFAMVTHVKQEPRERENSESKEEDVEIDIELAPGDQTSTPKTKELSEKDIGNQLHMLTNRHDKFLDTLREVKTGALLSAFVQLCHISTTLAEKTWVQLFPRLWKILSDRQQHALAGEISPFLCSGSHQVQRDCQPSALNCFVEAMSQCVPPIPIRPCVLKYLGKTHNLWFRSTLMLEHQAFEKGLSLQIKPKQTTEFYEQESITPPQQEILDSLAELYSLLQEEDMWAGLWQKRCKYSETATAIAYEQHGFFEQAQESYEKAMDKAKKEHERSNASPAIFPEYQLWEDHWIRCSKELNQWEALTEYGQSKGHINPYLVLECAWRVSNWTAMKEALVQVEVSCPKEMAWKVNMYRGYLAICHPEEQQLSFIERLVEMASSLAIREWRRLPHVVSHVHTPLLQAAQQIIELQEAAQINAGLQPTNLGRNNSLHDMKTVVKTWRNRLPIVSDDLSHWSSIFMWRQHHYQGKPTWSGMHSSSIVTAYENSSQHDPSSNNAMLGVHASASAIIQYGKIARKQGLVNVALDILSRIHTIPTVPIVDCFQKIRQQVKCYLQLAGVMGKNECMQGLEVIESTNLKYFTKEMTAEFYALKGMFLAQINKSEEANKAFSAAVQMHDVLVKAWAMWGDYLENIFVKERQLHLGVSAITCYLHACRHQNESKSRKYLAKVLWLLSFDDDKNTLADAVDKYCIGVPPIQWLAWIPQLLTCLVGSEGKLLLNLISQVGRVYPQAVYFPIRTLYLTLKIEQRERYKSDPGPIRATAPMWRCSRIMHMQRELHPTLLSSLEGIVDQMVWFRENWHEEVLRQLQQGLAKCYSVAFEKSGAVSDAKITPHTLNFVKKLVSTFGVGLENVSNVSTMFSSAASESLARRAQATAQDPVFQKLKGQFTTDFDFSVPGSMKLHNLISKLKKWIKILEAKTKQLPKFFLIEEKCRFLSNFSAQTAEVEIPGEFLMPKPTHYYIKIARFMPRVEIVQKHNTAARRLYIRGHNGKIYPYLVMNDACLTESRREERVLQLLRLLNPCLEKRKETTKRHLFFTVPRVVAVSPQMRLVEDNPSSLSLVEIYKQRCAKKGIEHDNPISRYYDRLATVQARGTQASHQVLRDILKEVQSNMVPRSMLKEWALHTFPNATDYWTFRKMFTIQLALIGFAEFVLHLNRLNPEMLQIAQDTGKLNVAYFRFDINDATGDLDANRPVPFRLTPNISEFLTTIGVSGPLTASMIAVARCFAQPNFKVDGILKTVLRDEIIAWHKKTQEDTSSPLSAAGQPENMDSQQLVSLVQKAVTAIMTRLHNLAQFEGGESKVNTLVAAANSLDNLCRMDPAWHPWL

The values below come from article doi:10.1101/2023.08.16.553474.

The target of this assay is MYCN (human (endogenous in IMR-32 and IMR-5)) (UniProt P04198). Briefly: affinity purification with mass spectrometry.

In the case of TRRAP (from UniProt Q9Y4A5 1-3859), the binding entry is on record as “binds”.
